From paper PMC10464048
No constants are given. Whether binding was seen depends on the method and setting. Binding seen in cells or lysates may run through a third protein. Some binding calls cover weakened binding; strength is not graded here.

Protein sequences, listed by entry. Tags and fused reporters are not part of them.
UniProt P62993: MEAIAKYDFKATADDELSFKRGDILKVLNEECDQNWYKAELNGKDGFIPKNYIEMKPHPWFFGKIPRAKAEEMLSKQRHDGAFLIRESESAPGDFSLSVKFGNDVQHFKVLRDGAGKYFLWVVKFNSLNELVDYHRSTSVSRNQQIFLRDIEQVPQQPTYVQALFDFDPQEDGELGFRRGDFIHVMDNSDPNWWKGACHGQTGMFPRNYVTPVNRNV

Target: T1, RING Finger Protein 173 (UniProt Q86UD3)
T1 sequence: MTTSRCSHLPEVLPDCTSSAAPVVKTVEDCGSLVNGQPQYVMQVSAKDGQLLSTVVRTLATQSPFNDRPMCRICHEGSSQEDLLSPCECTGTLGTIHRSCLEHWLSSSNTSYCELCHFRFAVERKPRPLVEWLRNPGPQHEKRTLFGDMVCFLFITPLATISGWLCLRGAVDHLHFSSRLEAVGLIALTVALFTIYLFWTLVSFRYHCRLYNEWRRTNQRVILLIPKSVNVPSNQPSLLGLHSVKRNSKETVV
Experiment: co-IP; cell lysate incubated overnight with 5 ug primary antibody (FLAG; GRB2 or IgG), protein A agarose beads 3 h, three washes, Western blot

binding: binds
Substance: Growth Factor Receptor Bound Protein 2 (from UniProt P62993 1-217)
